PubChem BioAssay AID1259405 – NCATS | 2018

Aim: 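Knock-downs that lift recombinant protein yield in hamster ovary cells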 (primary screen)
System: Chinese hamster CHO-K1 ovary cells with stable secreted eGFP expression
Knock-down reagent: single siRNA against mouse genes, 0.8 pmol siRNA per well (2 µl of 400 nM stock)
Timing: 3 days
Detection: 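Per-well intracellular GFP measured by laser scanning cytometry, plus viability from ATP luminescence, each relative to plate median of non-targeting control wells, in %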
Reading the numbers: GFP, % of control: higher = more GFP per well, higher productivity; viability (ATP), % of control: higher = more viable cells (more ATP)
Hit rule: 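a knock-down is called active if GFP reaches 120% or more of non-targeting control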
In all, the deposit lists about 50,000 reagents; below is an unselected part. About 4,000 of all reagents (8%) were called active. 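Mouse siRNA library applied to hamster cells; one well for each siRNA.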 Reagents against one gene are numbered here. Reagent sequences are not shown.

Gene	siRNA no.	GFP, % of control	viability (ATP), % of control	outcome
Per1 (period circadian clock 1)	1	82.7	84.9	inactive
Per1 (period circadian clock 1)	2	64.2	88.6	inactive
Glis2 (GLIS family zinc finger 2)	1	61.6	43.3	inactive
Glis2 (GLIS family zinc finger 2)	2	80	66	inactive
Glis2 (GLIS family zinc finger 2)	3	88.7	80.9	inactive
Urm1 (ubiquitin related modifier 1)	1	86.9	69	inactive
Urm1 (ubiquitin related modifier 1)	2	35.9	20.7	inactive
Urm1 (ubiquitin related modifier 1)	3	82.8	32.8	inactive
Ntng2 (netrin G2)	1	81.7	44.6	inactive
Ntng2 (netrin G2)	2	111	80.6	inactive
Ntng2 (netrin G2)	3	64.6	59.9	inactive
Stk40 (serine/threonine kinase 40)	1	58.4	80.7	inactive
Mthfr (methylenetetrahydrofolate reductase)	1	87.3	97.3	inactive
Mthfr (methylenetetrahydrofolate reductase)	2	136	103	active
Mthfr (methylenetetrahydrofolate reductase)	3	61.6	64	inactive
Gbp5 (guanylate binding protein 5)	1	92	52.8	inactive
Gbp5 (guanylate binding protein 5)	2	71.8	61.5	inactive
Gbp5 (guanylate binding protein 5)	3	86.3	81.5	inactive
Rara (retinoic acid receptor, alpha)	1	86.5	81.6	inactive
Rara (retinoic acid receptor, alpha)	2	101	57.1	inactive
Rara (retinoic acid receptor, alpha)	3	58.2	85.1	inactive
Psd2 (pleckstrin and Sec7 domain containing 2)	1	29.6	23.7	inactive
Psd2 (pleckstrin and Sec7 domain containing 2)	2	78.3	89.1	inactive
Psd2 (pleckstrin and Sec7 domain containing 2)	3	102	94.2	inactive
Grtp1 (GH regulated TBC protein 1)	1	152	76.6	active
Grtp1 (GH regulated TBC protein 1)	2	73.3	92.9	inactive
Grtp1 (GH regulated TBC protein 1)	3	25.1	22.8	inactive
Dmac2 (distal membrane arm assembly complex 2)	1	160	70.7	active
Dmac2 (distal membrane arm assembly complex 2)	2	53.7	31.1	inactive
Dmac2 (distal membrane arm assembly complex 2)	3	114	67.5	inactive
Krt35 (keratin 35)	1	95.9	74.8	inactive
Krt35 (keratin 35)	2	113	77.6	inactive
Cblc (Cbl proto-oncogene c)	1	75.8	59.8	inactive
Cblc (Cbl proto-oncogene c)	2	90.6	82.3	inactive
Cblc (Cbl proto-oncogene c)	3	104	93.1	inactive
Prkaca (protein kinase, cAMP dependent, catalytic, alpha)	1	114	113	inactive
Adamts5 (ADAM metallopeptidase with thrombospondin type 1 motif 5)	1	68.4	65	inactive
Adamts5 (ADAM metallopeptidase with thrombospondin type 1 motif 5)	2	42.9	21.2	inactive
Adamts5 (ADAM metallopeptidase with thrombospondin type 1 motif 5)	3	86.2	54.4	inactive
Racgap1 (Rac GTPase-activating protein 1)	1	95.1	71.2	inactive
Racgap1 (Rac GTPase-activating protein 1)	2	183	89.5	active
Racgap1 (Rac GTPase-activating protein 1)	3	67	103	inactive
Plekhh1 (pleckstrin homology, MyTH4 and FERM domain containing H1)	1	78.7	104	inactive
Plekhh1 (pleckstrin homology, MyTH4 and FERM domain containing H1)	2	128	74.7	active
Plekhh1 (pleckstrin homology, MyTH4 and FERM domain containing H1)	3	67.3	90.5	inactive
Mapk8ip1 (mitogen-activated protein kinase 8 interacting protein 1)	1	71.8	89.6	inactive
Mapk8ip1 (mitogen-activated protein kinase 8 interacting protein 1)	2	56.3	60.4	inactive
Ckap2 (cytoskeleton associated protein 2)	1	74.3	84.1	inactive
Ckap2 (cytoskeleton associated protein 2)	2	78.7	80	inactive
Ckap2 (cytoskeleton associated protein 2)	3	70.7	102	inactive
Psmb5 (proteasome (prosome, macropain) subunit, beta type 5)	1	62.1	46.4	inactive
Psmb5 (proteasome (prosome, macropain) subunit, beta type 5)	2	58.7	47	inactive
Psmb5 (proteasome (prosome, macropain) subunit, beta type 5)	3	35.8	45.9	inactive
Hlcs	1	64.8	67.9	inactive
Hlcs	2	83.8	59.7	inactive
Hlcs	3	87.4	105	inactive
Chic2 (cysteine-rich hydrophobic domain 2)	1	94.4	85.6	inactive
Chic2 (cysteine-rich hydrophobic domain 2)	2	40	76.1	inactive
Chic2 (cysteine-rich hydrophobic domain 2)	3	96.1	107	inactive
Ptk2 (PTK2 protein tyrosine kinase 2)	1	48.4	64.8	inactive
Msl1 (male specific lethal 1)	1	22.2	13.5	inactive
Msl1 (male specific lethal 1)	2	123	49.8	active
Msl1 (male specific lethal 1)	3	76.5	116	inactive
Vbp1 (von Hippel-Lindau binding protein 1)	1	75.9	101	inactive
Vbp1 (von Hippel-Lindau binding protein 1)	2	156	115	active
Alyref2 (Aly/REF export factor 2)	1	88.9	46.8	inactive
Alyref2 (Aly/REF export factor 2)	2	94.1	92.5	inactive
Alyref2 (Aly/REF export factor 2)	3	31.8	33.5	inactive
Cipc (CLOCK interacting protein, circadian)	1	61.8	60.7	inactive
Cipc (CLOCK interacting protein, circadian)	2	5.84	44.5	inactive
Cipc (CLOCK interacting protein, circadian)	3	98.3	107	inactive
Hmgcll1 (3-hydroxymethyl-3-methylglutaryl-Coenzyme A lyase-like 1)	1	62.6	62.7	inactive
Hmgcll1 (3-hydroxymethyl-3-methylglutaryl-Coenzyme A lyase-like 1)	2	97.4	77	inactive
Hmgcll1 (3-hydroxymethyl-3-methylglutaryl-Coenzyme A lyase-like 1)	3	38.4	52.4	inactive
Hesx1 (homeobox gene expressed in ES cells)	1	49.5	39.9	inactive
Hesx1 (homeobox gene expressed in ES cells)	2	77.8	66.6	inactive
Hesx1 (homeobox gene expressed in ES cells)	3	96.4	81.4	inactive
Gpx3 (glutathione peroxidase 3)	1	123	98.9	active
Gpx3 (glutathione peroxidase 3)	2	70	75.3	inactive
Gpx3 (glutathione peroxidase 3)	3	60.6	82.5	inactive
Bcat1 (branched chain aminotransferase 1, cytosolic)	1	109	99.5	inactive
Bcat1 (branched chain aminotransferase 1, cytosolic)	2	63.5	112	inactive
Bcat1 (branched chain aminotransferase 1, cytosolic)	3	105	110	inactive
Cfap52 (cilia and flagella associated protein 52)	1	109	107	inactive
Cfap52 (cilia and flagella associated protein 52)	2	32.8	51.1	inactive
Cfap52 (cilia and flagella associated protein 52)	3	104	89.4	inactive

Called active, among the entries above:
Gene	siRNA no.	GFP, % of control	viability (ATP), % of control	outcome
Mthfr (methylenetetrahydrofolate reductase)	2	136	103	active
Grtp1 (GH regulated TBC protein 1)	1	152	76.6	active
Dmac2 (distal membrane arm assembly complex 2)	1	160	70.7	active
Racgap1 (Rac GTPase-activating protein 1)	2	183	89.5	active
Plekhh1 (pleckstrin homology, MyTH4 and FERM domain containing H1)	2	128	74.7	active
Msl1 (male specific lethal 1)	2	123	49.8	active
Vbp1 (von Hippel-Lindau binding protein 1)	2	156	115	active
Gpx3 (glutathione peroxidase 3)	1	123	98.9	active
